# Screen size: about 310,000 compounds; about 17,000 (5.5%) were called active. Inconclusive results, whose numbers are uncertain, are shown with a selection of clear calls. The call rests on the fitted dose curve; in most records, active means well fitted inhibition curve with a large enough effect; inconclusive means small, poorly fitted or top-dose-only effect, or effect the other way; inactive means no such curve, though single readings can be large or run the other way. Where the call is inconclusive, the potency comes from a doubtful curve fit.
# Sequences of proteins named here, by UniProt entry; tags and fusion partners are left off. A change or cut given only in a name is not applied to a line headed by its entry.
# UniProt P51450: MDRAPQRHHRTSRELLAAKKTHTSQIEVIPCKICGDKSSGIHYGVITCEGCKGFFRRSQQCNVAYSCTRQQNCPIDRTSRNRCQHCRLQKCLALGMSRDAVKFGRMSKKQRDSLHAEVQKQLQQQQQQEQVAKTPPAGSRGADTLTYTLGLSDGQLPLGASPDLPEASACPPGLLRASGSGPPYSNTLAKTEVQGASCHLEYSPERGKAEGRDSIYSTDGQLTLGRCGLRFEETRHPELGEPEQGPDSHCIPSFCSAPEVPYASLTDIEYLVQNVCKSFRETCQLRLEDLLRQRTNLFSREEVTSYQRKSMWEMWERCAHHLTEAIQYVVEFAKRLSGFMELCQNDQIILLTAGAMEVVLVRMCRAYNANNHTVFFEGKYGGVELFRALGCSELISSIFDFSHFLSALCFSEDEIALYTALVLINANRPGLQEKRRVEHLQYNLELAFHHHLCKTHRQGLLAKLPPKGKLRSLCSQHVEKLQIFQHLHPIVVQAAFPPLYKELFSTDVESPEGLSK
# Target: Nuclear receptor ROR-gamma (Mus musculus) (UniProt P51450)
# Experiment: qHTS for inhibitors of ROR gamma transcriptional activity; further: nearly all actives have a fitted effect of over 60% in size
# Conditions: Drosophila S2 Gal4-RORgamma UAS-luciferase reporter, 20 h; activity change, negative = inhibition: at 53.6 µM (top of the series)
# Method in brief: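 Drosophila Schneider cells stably carrying a metallothionein-driven Gal4 DBD–ROR gamma fusion and a UAS-Photinus luciferase reporter were exposed to compound for 1 hr, then induced with copper sulfate (700 uM final) for 20 hr at ambient temperature before luminescence reading.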
# On the % scale 0 is the no-effect control and ±100 the full control effect; potency means the concentration at half of the fitted maximal effect.
SMILES,Potency,"activity change, negative = inhibition"
O=C(CSCc1ccc(Cl)cc1)Nc1cc([N+](=O)[O-])ccc1O,"inconclusive: 3.16 µM [inhibitor, single point]",
CC1(C)Cc2c(ccc3ccccc23)C(c2cc3ccccc3oc2=O)=N1,"inconclusive: 11.2 µM [inhibitor, single point]",
CC1(c2ccccc2)CC(c2ccccc2)=Nc2nonc2N1 (centres undefined),,inactive: -21.8%
COc1ccc(NC(NC(=O)c2ccc(OC)cc2)C(Cl)(Cl)Cl)cc1 (centres undefined),"inconclusive: 15.8 µM [activator, single point]",
C/C(=N\NC(=S)NC1CCCCC1)c1cccs1,"inconclusive: 0.355 µM [inhibitor, full curve]",
NNC(=O)/C(=N/Nc1ccccc1)S(=O)(=O)c1ccc(Cl)cc1,"inconclusive: 10 µM [inhibitor, single point]",
O=C(c1ccc(-c2cccc(C(F)(F)F)c2)o1)N1CCN(c2ccccc2O)CC1,"inconclusive: 17.8 µM [activator, single point]",
COc1ccc(-c2ccc(/C=N/NC(=O)c3cccnc3)o2)c([N+](=O)[O-])c1,active: 20 µM,
COc1ccc(/C=N/Nc2ccccn2)cc1OC,"inconclusive: 22.4 µM [inhibitor, single point]",
Cc1ccccc1C1C(C#N)=C2N=C(N)c3c(sc4c3CCCCC4)N2C2=C1C(=O)CCC2 (centres undefined),active: 14.1 µM,
C=CCc1c(C)nc(-c2ccccc2)nc1N/N=C(\C)c1ccccc1,"inconclusive: 35.5 µM [inhibitor, single point]",
Cc1cccc(NC(=O)CSc2nc3ccccc3c(=O)n2C)c1,"inconclusive: 12.6 µM [activator, partial curve]",
COc1ccc(NCc2nnc(SCc3ccc(Cl)cc3)n2-c2ccccc2)cc1,"inconclusive: 35.5 µM [activator, single point]",
CCN(C(=O)COC(=O)CSc1ccc(C(N)=O)cc1[N+](=O)[O-])C1CCCCC1,"inconclusive: 17.8 µM [activator, single point]",
CCCCn1c(C)cc(C)c(S(=O)(=O)c2ccccc2C)c1=O,"inconclusive: 14.1 µM [activator, single point]",
CCN(CC)S(=O)(=O)c1ccc2oc(C(=O)N3CCc4ccccc4C3)c(C)c2c1,"inconclusive: 20 µM [activator, single point]",
Cc1ccc(S(=O)(=O)n2nccc2-c2c(-c3ccccc3)noc2C)cc1,"inconclusive: 14.1 µM [activator, single point]",
COc1ccc(CCN(C)C(=O)c2ccc(S(=O)(=O)NCc3ccco3)cc2)cc1OC,"inconclusive: 11.2 µM [activator, partial curve]",
O=[N+]([O-])c1ccc(N2CCN(c3ccccc3O)CC2)c(Cl)c1,"inconclusive: 0.891 µM [activator, partial curve]",
Cc1ccccc1NC(=O)CCN1CCN(C)CC1,active: 10 µM,
COc1ccc(C(=O)CCS(=O)(=O)c2ccc(C)cc2)cc1OC,active: 2.82 µM,
Cc1cc2cc(CNC(=S)Nc3ccc(OC(F)F)cc3)ccc2[nH]1,active: 12.6 µM,

# Filtered by structure: those above with a thiophene ring, fused or not (2)
SMILES,Potency,"activity change, negative = inhibition"
C/C(=N\NC(=S)NC1CCCCC1)c1cccs1,"inconclusive: 0.355 µM [inhibitor, full curve]",
Cc1ccccc1C1C(C#N)=C2N=C(N)c3c(sc4c3CCCCC4)N2C2=C1C(=O)CCC2 (centres undefined),active: 14.1 µM,

# (continued)

SMILES,Potency,"activity change, negative = inhibition"
CCC(C)NC(=O)C1(O)c2cc(Br)ccc2NC(=O)N1c1cccc(OC)c1 (centres undefined),"inconclusive: 2.24 µM [activator, partial curve]",
CCn1nnc2sc3c(c2c1=O)CCC(C)C3 (centres undefined),,inactive: 13.5%
Cc1noc(C)c1-c1ccc2ncnc(NCc3ccc(-c4ccccc4)cc3)c2c1,"inconclusive: 5.62 µM [inhibitor, full curve, poor fit]",
CN1/C(=C\C(=O)C[n+]2ccc(C(=O)c3ccccc3)cc2)C(C)(C)c2ccccc21,"inconclusive: 12.6 µM [activator, single point]",
COc1ccc([N+](=O)[O-])cc1/C=N/NC(=O)Cc1ccccc1,active: 7.94 µM,
O=C(Nc1nsc(-c2ccccc2)n1)c1cccs1,"inconclusive: 31.6 µM [activator, single point]",
COc1ccc(NC(=O)Cn2nnc(C(=O)NCc3cccc(OC)c3)c2N)cc1,,inactive: -18.3%
COc1ccc(-c2ccc(/C=C3/C(=N)N4C(C)=CSC4=NC3=O)o2)c([N+](=O)[O-])c1,active: 11.2 µM,
O=C1C=C(N2CCCCCC2)C2(CCCCC2)O1,,inactive: 8.5%
CCOC(=O)C1=NN(C(=O)COc2ccccc2)C(O)(c2ccc(Cl)cc2)C1 (centres undefined),active: 3.55 µM,
C=CCOc1ccccc1C(=O)/C=C1/C(=O)Nc2ccccc21,active: 5.62 µM,
CCOC(=O)c1cccc(Nc2nc(-c3cccnc3)nc3ccccc23)c1,"inconclusive: 35.5 µM [inhibitor, single point]",
Clc1ccccc1-c1nc(N/N=C/c2cccnc2)c2ccccc2n1,"inconclusive: 15.8 µM [inhibitor, single point]",
CCc1ccc(CN(C)Cc2nc(-c3cccc(Cl)c3)no2)nc1,"inconclusive: 17.8 µM [inhibitor, single point]",
CCCN(CCC)C(=S)NC1CC2C=CC1C2 (centres undefined),"inconclusive: 8.91 µM [inhibitor, partial curve, poor fit]",
CCCCN(CCCNC(=O)C1CCN(S(=O)(=O)N2CCOCC2)CC1)c1ccccc1,"inconclusive: 12.6 µM [activator, partial curve, poor fit]",
CC(=O)N1c2ccc(S(=O)(=O)N3CCC(C(=O)Nc4ccc(F)cc4)CC3)cc2CC1C (centres undefined),"inconclusive: 14.1 µM [activator, partial curve]",
Cn1ncc(Br)c1C(=O)OCC(=O)Nc1nc(-c2ccccc2)cs1,"inconclusive: 3.98 µM [activator, full curve]",
C[C@H](NC(=O)Nc1cccc(C(F)(F)F)c1)C(=O)O,"inconclusive: 0.005 µM [activator, full curve, poor fit]",
CCOc1ccc(/C=N/Nc2cc(N3CCOCC3)nc(C)n2)c(O)c1,active: 7.08 µM,
COc1cccc(NC(=S)NCCc2ccccn2)c1,"inconclusive: 2 µM [activator, partial curve, poor fit]",
COc1ccc(NC(=O)Cc2coc3cc(C)c(C(C)C)cc23)cc1S(=O)(=O)N1CCOCC1,,inactive: 20.2%

# Reference: PubChem BioAssay AID2551 (National Center for Advancing Translational Sciences (NCATS), 2010)
